Results are given in words; binding and its absence hold for the method and conditions named. Binding seen in cells or lysates may run through a third protein. These calls come from enrichment with a bait or labelling near it, and not all partners need be listed. No binding means not detected with the bait.
Legend:
[1] = biological target: plasminogen; assay: affinity purification with mass spectrometry; plasminogen as bait on an avidin agarose column; M. hyopneumoniae protein lysate loaded in PBS (pH 7.8), washed with 4 column volumes of PBS, eluted with 30% acetonitrile, 0.4% trifluoroacetic acid; elutions separated by 1D-SDS-PAGE and analysed by LC-MS/MS; only the target purified
[2] = biological target: fibronectin; assay: affinity purification with mass spectrometry; fibronectin as bait on an avidin agarose column; M. hyopneumoniae protein lysate loaded in PBS (pH 7.8), washed with 4 column volumes of PBS, eluted with 7 M urea, 2 M thiourea, 40 mM Tris and 1% (w/v) C7BzO; elutions separated by 1D-SDS-PAGE and analysed by LC-MS/MS; only the target purified

B1: 30S ribosomal protein S11 (protein, UniProt Q4AAG5 1-134)
chain: MATNVKKVKKLRPKNVTVGIAHIHSSHQNTIISFTDKQGNVISWASSGSVGFKGTKKKTAYAATLATAAAAQKAREHGIREVIVELKGTGQGKEAARKQIITSGLNILLTKDVTPVPHNGTRPPRKWFKRQEKR
binding [1]: binds | binding [2]: binds

B2: Transcription elongation factor GreA (protein, UniProt Q4A921 1-160)
chain: MKNIVDDKILLTQQKLEEIEKELEHLINVERVNVIQEIKDARSQGDLSENAEYDVAREKQGIIESRIRELETIISKAKIIKADLGSSRVSIGSKVSLENVESGEIQTFQIVSSIDADPFKSKISNFSPIAQALLGQHQGDEVEVDVNEKYSVRILEVINE
binding [1]: no binding | binding [2]: no binding
